Data on 64 compounds can be found in PubChem BioAssay AID493014 (National Center for Advancing Translational Sciences (NCATS), 2011).

The experiment is described as follows: qHTS Assay to Find Inhibitors of Chronic Active B-Cell Receptor Signaling. The following applies: ABC-DLBCL IkBa-CBG/CBR reporter, luminescence ratio (green luciferase fused to IkBa over red control in TMD8 lymphoma cells), 4 h. The gist of the method: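 Concentration-response series (up to 46 uM) were applied to TMD8 dual-reporter cells for 4 h at 37C with doxycycline. Green/red ratio, after filter-overlap correction, defined %Activity; red signal alone was normalised to basal cells and zero luminescence.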

Where [1] appears, read: measured here: CBR red luminescence, cell number.
[2] abbreviates: measured here: IkBa-CBG green luminescence.

This is one part of the list. The main result of the screen is listed elsewhere. These columns were measured beside it and carry no call. Compounds called inactive in the main read-out are mostly missing here. Potencies come from curve fits of mixed quality, noted in brackets.

Turning to `CCc1ccc2c(CN(CC)Cc3nc4ccccc4c(=O)[nH]3)cc(=O)oc2c1`, the AC50 runs as follows: under setting [1], 2.91 µM [falling, partial curve, poor fit]; under setting [2], 3.26 µM [rising, partial curve, poor fit].

Regarding `COc1ccc(-c2csc(NC(=O)CN3C(=O)NC4(CCCC4)C3=O)n2)cc1`, under setting [1], the AC50 is 1.84 µM [falling, full curve].

With `CCCCc1nnc(SCC(=O)Nc2nccs2)n1C`, the AC50 under setting [1] is 15.8 µM [falling, partial curve, poor fit].

As for `COc1ccc2c(c1OC)C(=O)OC2C1c2c(cc3c(c2OC)OCO3)CCN1C` (configuration not stated), the half-maximal activity concentration (AC50) under setting [1] was 4.11 µM [rising, full curve, poor fit].

Turning to `COc1ccc(OC)c(NC(=O)c2nc3ccccc3s2)c1`, the AC50 under setting [1] is 35.5 µM [rising, partial curve, poor fit].

For `CC(=O)Nc1ccc(NC(=O)CCCSc2nc3ccccc3s2)cc1`, the AC50 under setting [1] is 0.0891 µM [rising, full curve, poor fit].

Take `CCOc1cc(CNc2ccc3c(c2)OCCO3)cc(Br)c1OCC`: the AC50 by setting is: under setting [1], 12.6 µM [rising, partial curve]; under setting [2], 12.6 µM [falling, partial curve].

On to `CN1CCN(C(c2ccccn2)c2cc(Cl)c3cccnc3c2O)CC1` (configuration not stated), for which the concentration at half-maximal activity (AC50) under setting [2] is 3.98 µM [falling, full curve].

For the compound `CCC(=O)Nc1nnc(CCc2ccccc2)s1`, the AC50 under setting [1] was 16.4 µM [falling, single point].

As for `COc1nc(Nc2ccc(O)cc2)nc(OC(C(F)(F)F)C(F)(F)F)n1`, the AC50 under setting [1] was 6.51 µM [rising, partial curve, poor fit].

Consider `Cc1cccc(N=Nc2c(O)[nH]c3ccc(F)cc23)c1`, for which, under setting [1], the AC50 is 10 µM [falling, partial curve].

For the compound `CC(=O)NCCc1nc2cc(NC(=O)c3ccccc3Cl)ccc2n1C`, the AC50 under setting [1] is 17.8 µM [falling, single point].

Regarding `CCOC(=O)c1c2c(c(=S)n(-c3ccccc3)c1N)CCC2`, the AC50 under setting [1] was 0.501 µM [falling, full curve, poor fit].

As for `Cc1c(NC(=O)CSc2nc3ccccc3s2)c(=O)n(-c2ccccc2)n1C`, the AC50 under setting [1] was 6.51 µM [falling, single point].

As to `O=C(/C=C/c1ccccc1)CC(O)(c1ccccc1)C(F)(F)F` (configuration not stated), under setting [1], the AC50 was 29.1 µM [falling, single point].

In the case of `CCCCN(C)C(=O)C1CCC(CNS(=O)(=O)c2ccc(Cl)cc2)CC1` (configuration not stated), under setting [1], the AC50 is 3.16 µM [rising, partial curve, poor fit].

Consider `CC(C)Oc1ccc(C(=O)NNC(=O)c2ccccc2C(=O)O)cc1`, for which, under setting [1], the AC50 was 0.461 µM [falling, full curve].

In the case of `Clc1ccc(CSc2nnc3ccccn23)c(Cl)c1`, under setting [1], the AC50 is 0.259 µM [rising, full curve, poor fit].

For the compound `CC1CN(C(=O)CSc2nc(-c3ccc(F)cc3)cs2)CC(C)O1` (configuration not stated), under setting [1], the AC50 is 0.651 µM [rising, full curve, poor fit].

For `C/C(=N\NC(=O)c1cc(C)oc1C)c1ccc2c(c1)OCO2`, the AC50 under setting [1] is 10 µM [falling, partial curve, poor fit].

As for `Fc1cc(F)nc(NCc2ccccc2)n1`, the AC50 under setting [1] is 35.5 µM [rising, single point].

As to `CCOC(=O)c1c(Cc2ccc(Cl)cc2)c[nH]c1C`, the AC50 under setting [1] is 5.8 µM [rising, partial curve, poor fit].

For the compound `CCc1ccc2c(CN3CCC(C(=O)OC)CC3)cc(=O)oc2c1`, the AC50 under setting [1] was 2.24 µM [rising, partial curve, poor fit].

As to `O=C(CS(=O)(=O)c1ccc2ccccc2c1)N1CCCCCC1`, the AC50 under setting [1] is 5.62 µM [falling, single point].

For the compound `COc1ccc(NC(=O)c2ccccc2NC(=O)CSc2ccc(Cl)cc2)cc1`, under setting [1], the AC50 was 14.6 µM [falling, single point].

Turning to `Cc1cc(C(=O)Nc2nc3c(C)cccc3s2)c(C)o1`, under setting [1], the AC50 was 1.46 µM [falling, full curve, poor fit].

Take `N#Cc1ccccc1NC(=O)C1SC(=Nc2ccccc2)C(C(=O)Nc2ccc(Cl)cc2)=C1N` (configuration not stated): the AC50 under setting [1] is 35.5 µM [falling, single point].

Consider `CCc1nnc(NC(=O)C2CCN(S(=O)(=O)Cc3ccccc3)CC2)s1`, for which the AC50 under setting [1] was 11.6 µM [rising, partial curve, poor fit].

Regarding `CC(=O)C1=NN(c2ccccc2)C(c2cccs2)N1c1ccc(N(C)C)cc1` (configuration not stated), the AC50 under setting [1] was 32.6 µM [falling, partial curve, poor fit].

Consider `O=C(Nc1cccc(NC(=O)c2cccnc2)c1)c1cccnc1`, for which the AC50 under setting [1] is 6.51 µM [falling, partial curve].

Turning to `Cc1ccc(C)c(NC(=O)c2ccccc2C(=O)c2ccccc2)c1`, the AC50 under setting [1] is 35.5 µM [falling, single point].

Consider `Cc1ccc(N(C(=O)CNC(=O)c2ccco2)C(C(=O)NC2CCCC2)c2cccnc2)c(C)c1` (configuration not stated), for which the concentration at half-maximal activity (AC50) under setting [1] was 6.31 µM [rising, single point].

For the compound `COc1cc(NC(=O)c2cnc(N)s2)cc(C(=O)Nc2cccc(C(F)(F)F)c2)c1`, the AC50 under setting [1] is 6.31 µM [rising, single point].

`CC12CCC(=O)N1C(C(=O)Nc1nc(-c3cc(F)ccc3F)cs1)CS2` (configuration not stated): the AC50 under setting [1] is 2.59 µM [falling, partial curve].

Take `Cc1ccc2nc(SC(C)C(=O)NC3CCCc4ccccc43)[nH]c2c1` (configuration not stated): the AC50 under setting [1] was 32.6 µM [falling, single point].

Take `CCn1nccc1C(=O)Nc1ccc(Cl)cn1`: under setting [1], the AC50 is 18.4 µM [falling, partial curve].

Take `Cc1ccc(C(C(=O)NC2CCCCC2)N(C(=O)Cc2c[nH]c3ccccc23)c2ccccc2)o1` (configuration not stated): the AC50 under setting [1] is 1.26 µM [falling, full curve].

Consider `CCOC(=O)COc1ccccc1C1Nc2ccccc2C(=O)N1c1cccc(Cl)c1` (configuration not stated), for which the AC50 under setting [1] is 10 µM [falling, partial curve].

As for `CCOC(=O)Cc1csc(NC(=O)c2ccc(C)cc2)n1`, the AC50 under setting [1] is 14.1 µM [falling, single point].

For `Cc1ccc(NC(=O)c2cccnc2)cc1S(=O)(=O)N1CCOCC1`, the AC50 under setting [1] is 7.31 µM [rising, partial curve, poor fit].

`CCC(=O)Oc1ccc(/C(CC)=C(\CC)c2ccc(OC(=O)CC)cc2)cc1`: the AC50 under setting [1] was 0.206 µM [rising, full curve, poor fit].

On to `Cc1ccccc1C(=O)N1CCN(c2ccc(NC(=O)c3cccs3)cc2)CC1`, for which, under setting [1], the AC50 is 2 µM [falling, partial curve, poor fit].

As to `Cc1ccc(NC2Sc3ccccc3NC2=O)cc1` (configuration not stated), the AC50 under setting [1] was 5.62 µM [falling, partial curve, poor fit].

As for `Cc1cc(C)c(C(=O)N2CCCC(Nc3ccc(F)cc3)C2)o1` (configuration not stated), the AC50 under setting [1] was 2.82 µM [rising, single point].

Take `COc1ccc(Nc2nnc(SCC(=O)Nc3ccc4[nH]c(=O)[nH]c4c3)s2)cc1`: under setting [1], the AC50 is 0.355 µM [rising, full curve, poor fit].

With `CCCCCC(=O)NC(=S)Nc1ccc(Cl)cn1`, the AC50 under setting [1] was 3.66 µM [rising, full curve, poor fit].

As to `O=C(CSc1ccc2nnc(-c3ccc(F)cc3)n2n1)NCC1CCCO1` (configuration not stated), under setting [1], the AC50 is 28.2 µM [rising, single point].

On to `Cc1nc(N)nc(-c2ccccc2O)n1`, for which the AC50 under setting [1] was 0.461 µM [falling, full curve, poor fit].

Regarding `COc1ccc(/C=C2/C(=O)OCc3cc(OC)c(OC)cc32)c(OC)c1`, the half-maximal activity concentration (AC50) under setting [1] is 1.03 µM [rising, partial curve, poor fit].

Consider `O=C(NCc1ccco1)C(=O)c1cn(CC(=O)N2CCCC2)c2ccccc12`, for which the AC50 under setting [1] was 7.08 µM [falling, full curve, poor fit].

In the case of `CCOc1ccc(/C=N/N2C(C)CCCC2C)cc1OC` (configuration not stated), under setting [1], the AC50 was 0.562 µM [rising, full curve, poor fit].

Regarding `COC(=O)c1c(C)oc2ccc(N(C(=O)c3ccncc3)S(=O)(=O)c3ccc(C)cc3)cc12`, under setting [1], the AC50 is 0.058 µM [rising, full curve, poor fit].

`CC(=O)Nc1ccc(/C=N/NC(=O)c2cccc(S(=O)(=O)N3CCOCC3)c2)cc1`: under setting [1], the AC50 was 0.411 µM [rising, full curve, poor fit].

On to `CCOc1ccccc1NS(=O)(=O)c1ccc(-c2cnc(C3CC3)o2)cc1`, for which the AC50 under setting [1] was 2.82 µM [rising, partial curve] and the AC50 under setting [2] is 2.24 µM [falling, full curve].

As to `O=C(NNC(=S)Nc1ccc(F)cc1F)c1ccco1`, the AC50 under setting [1] is 12.6 µM [falling, partial curve, poor fit].

Turning to `CCCn1c(=N)n(CC(=O)c2ccc(Cl)cc2)c2ccccc21`, the concentration at half-maximal activity (AC50) under setting [1] was 1.26 µM [rising, full curve, poor fit].

As to `COc1ccccc1-c1nc(S(=O)(=O)c2ccccc2)c(N2CCCCC2)o1`, the AC50 under setting [1] is 17.8 µM [falling, partial curve, poor fit].

Turning to `Cc1ccc(NC(=O)COC(=O)CN2C(=O)COc3ccccc32)cc1`, under setting [1], the AC50 is 0.517 µM [rising, full curve, poor fit].

As to `Cc1cccc2sc(NC(=O)C3CCCN(S(=O)(=O)c4cccc5nonc45)C3)nc12` (configuration not stated), under setting [1], the AC50 is 3.66 µM [falling, full curve, poor fit].

Consider `Cc1ccc(CSc2nc3ccsc3c(=O)n2Cc2ccccn2)cc1`, for which the AC50 under setting [1] is 16.4 µM [falling, single point].

As for `CC(C)CNC(=O)CC(=O)NN=C1CCCC1`, under setting [1], the half-maximal activity concentration (AC50) is 0.231 µM [rising, full curve, poor fit].

For the compound `Cc1nc(C(=O)NCCO)cc2c1[nH]c1ccccc12`, under setting [1], the AC50 is 10 µM [falling, partial curve].

In the case of `Clc1ccc(N=C2SCC3CCCCN23)cc1` (configuration not stated), the concentration at half-maximal activity (AC50) under setting [1] is 7.94 µM [rising, partial curve].

Turning to `COc1ccc(/C=N/Nc2cc(C)nc(NS(=O)(=O)c3ccc(C)cc3)n2)cc1`, the AC50 under setting [2] was 0.0411 µM [falling, full curve, poor fit].
